{"sequences": {"note": "Chains of the proteins cited; added tags and fusions are not shown.", "UniProt Q8NER1, whole entry, looked up": "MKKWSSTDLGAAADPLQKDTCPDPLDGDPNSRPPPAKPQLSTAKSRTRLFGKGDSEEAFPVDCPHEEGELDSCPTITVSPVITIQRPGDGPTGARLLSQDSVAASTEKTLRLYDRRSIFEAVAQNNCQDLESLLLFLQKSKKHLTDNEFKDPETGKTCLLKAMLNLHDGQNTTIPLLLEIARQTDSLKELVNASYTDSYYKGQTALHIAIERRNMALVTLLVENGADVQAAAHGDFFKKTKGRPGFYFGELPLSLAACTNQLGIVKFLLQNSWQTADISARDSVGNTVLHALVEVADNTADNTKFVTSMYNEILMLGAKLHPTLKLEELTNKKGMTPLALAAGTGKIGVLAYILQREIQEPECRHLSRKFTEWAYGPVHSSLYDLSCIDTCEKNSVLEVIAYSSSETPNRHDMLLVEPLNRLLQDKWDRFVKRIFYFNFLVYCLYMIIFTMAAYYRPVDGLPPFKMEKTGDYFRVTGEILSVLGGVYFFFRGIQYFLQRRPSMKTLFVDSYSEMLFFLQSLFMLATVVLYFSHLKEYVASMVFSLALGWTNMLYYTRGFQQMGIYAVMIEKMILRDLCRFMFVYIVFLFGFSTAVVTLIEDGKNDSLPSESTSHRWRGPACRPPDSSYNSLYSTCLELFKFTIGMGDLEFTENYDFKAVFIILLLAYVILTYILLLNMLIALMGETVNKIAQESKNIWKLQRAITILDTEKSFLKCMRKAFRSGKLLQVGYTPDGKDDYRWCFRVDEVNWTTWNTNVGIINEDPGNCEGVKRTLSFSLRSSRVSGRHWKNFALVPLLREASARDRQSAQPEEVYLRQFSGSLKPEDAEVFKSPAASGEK"}, "source": "PubChem BioAssay AID540275", "about": "(National Center for Advancing Translational Sciences (NCATS), 2011)", "note": "About 620 (0.19%) of roughly 320,000 compounds were called active. The shares of active, inactive and inconclusive entries below differ from those in the screen. Rule as the data show it: active = activation above about 80%; inconclusive = between about 30% and that limit; inactive = weaker than that.", "data": [{"target": "Transient receptor potential cation channel subfamily V member 1 (Homo sapiens) (UniProt Q8NER1)", "experiment": "HTS Assay for Compounds that Act as Agonists of the Vanilloid Receptor 1; also: 0% is about no effect", "details": "TRPV1-expressing cells, Fluo-8 calcium influx, agonist mode; at 8.33 µM; stronger effect = higher value", "outline": "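Fluo-8 calcium influx in TRPV1-expressing cells, kinetic read (ex 480/em 520 nm). Compound added and read 3 min for agonist activity, followed by capsaicin at EC20 final and 2 min further read for enhancement.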", "values": [{"smiles": "COc1ccc(-n2c(-c3ccccc3Br)nc3ccccc3c2=O)cc1", "activation": "inconclusive: 45.1%"}, {"smiles": "COC(=O)C1=C(c2ccc(Cl)c(C(F)(F)F)c2)C[C@@H]2CC[C@H]1N2C(=O)N1CCOCC1", "activation": "inconclusive: 77.5%"}, {"smiles": "COC(=O)C1=C(c2ccc(Cl)c(C(F)(F)F)c2)C[C@@H]2CC[C@H]1N2C(=O)NCc1ccco1", "activation": "inactive: 15.4%"}, {"smiles": "O=C(c1cc(F)ccc1F)C1CCCN(CCCc2ccccc2)C1", "note": "(stereo not drawn)", "activation": "inactive: 1.44%"}, {"smiles": "Cc1ccc(-c2nc3ccccc3c(=O)n2-c2ccc(Br)cn2)cc1", "activation": "inconclusive: 36.8%"}, {"smiles": "CN(C)C(Cc1ccccc1)C(=O)c1c[nH]c2ccccc12", "note": "(stereo not drawn)", "activation": "inactive: 11.1%"}, {"smiles": "COc1ccc(OCC(=O)N2CCCC(N3CCN(c4ccccc4C)CC3)C2)cc1", "note": "(stereo not drawn)", "activation": "inactive: 17.3%"}, {"smiles": "COc1ccc(C(=O)CC2(CC(=O)c3ccc(OC)cc3)C(=O)N(C)C(=O)N(C)C2=O)cc1", "activation": "inactive: -2.24%"}, {"smiles": "COC(=O)C1=C(c2ccc(OC)c(OC)c2)C[C@@H]2CC[C@H]1N2C(=O)NCc1ccc(F)cc1", "activation": "inconclusive: 31.6%"}, {"smiles": "Clc1ccc(-c2nc3ccc(Cl)cn3c2CN2CCCCC2)cc1", "activation": "inconclusive: 31.9%"}, {"smiles": "Cc1ccc(OP(=O)(NC(C)c2ccccc2)Oc2ccc(C)cc2)cc1", "note": "(stereo not drawn)", "activation": "inconclusive: 52.9%"}, {"smiles": "COc1cccc(Oc2coc3cc(OC(=O)N(C)C)ccc3c2=O)c1", "activation": "inconclusive: 34.2%"}, {"smiles": "COc1ccc(C(=O)N2C[C@H]3C[C@@H](C2)c2cccc(=O)n2C3)cc1OC", "activation": "inactive: 1.35%"}, {"smiles": "Cc1ccccc1-c1nc(CS(=O)CC(=O)N2CCC3(CC2)OCCO3)c(C)o1", "note": "(stereo not drawn)", "activation": "inactive: -2.78%"}, {"smiles": "COc1ccc(NP(=O)(Oc2ccccc2OC)Oc2ccccc2OC)cc1", "activation": "inactive: 8.71%"}, {"smiles": "CN1/C(=C\\C=Nc2ccccc2)C(C)(C)c2ccccc21", "activation": "inactive: 3.96%"}, {"smiles": "CCCCN1C(=O)NC(=O)C2(Cc3c(nc4c(C)cccn4c3=O)N3CCc4ccccc4C32)C1=O", "note": "(stereo not drawn)", "activation": "inconclusive: 69.1%"}, {"smiles": "Cc1ccc2scc(N3CCN(C)CC3)c(=O)c2c1", "activation": "inactive: 1.03%"}, {"smiles": "CCOC(=O)C1(CCc2ccccc2)CCN(Cc2cccc3cnccc23)CC1", "activation": "inactive: -4.29%"}, {"smiles": "CCn1nc(-c2ccccc2)nc2c(=O)n(C)c(=O)nc1-2", "activation": "inactive: 3.7%"}, {"smiles": "C#CCN1C(=O)C2(C(C#N)=C(N)OC(C)=C2C(=O)OCc2ccccc2)c2ccccc21", "note": "(stereo not drawn)", "activation": "inconclusive: 41.3%"}, {"smiles": "CC(c1ccc(F)cc1)n1cc(C(=O)NCc2ccc3c(c2)OCO3)nn1", "note": "(stereo not drawn)", "activation": "inconclusive: 34.4%"}, {"smiles": "Cc1nc2cc(C(F)(F)F)ccc2n1C1CCN(Cc2nnnn2Cc2ccc3c(c2)OCO3)CC1", "activation": "inactive: 6.14%"}, {"smiles": "CC1CCCN(c2ccc(C(=O)N3CCC4(CC3)OCCO4)cc2[N+](=O)[O-])C1", "note": "(stereo not drawn)", "activation": "inconclusive: 46.8%"}, {"smiles": "O=C(Nc1ccccc1)c1cccn(Cc2ccccc2)c1=O", "activation": "inactive: 8.78%"}, {"smiles": "C[C@H]1CCC[C@@H](O)CCC/C=C/c2cc(O)cc(O)c2C(=O)O1", "activation": "inactive: 0.0949%"}, {"smiles": "Cc1ccc(-n2c(O)c(C=NCc3ccccn3)c(=O)[nH]c2=S)cc1", "activation": "inactive: 1.99%"}, {"smiles": "COP(=O)(OC)C(NC(=O)c1ccc(C)cc1)C(Cl)(Cl)Cl", "note": "(stereo not drawn)", "activation": "inconclusive: 50.6%"}, {"smiles": "CC(=O)c1ccc2c(c1)C1C(Cl)C(Sc3ccccc3[N+](=O)[O-])CC1C(c1ccccc1)N2", "note": "(stereo not drawn)", "activation": "inactive: -0.427%"}, {"smiles": "COc1cc(CN2CCN(c3cc(C)ccc3C)CC2)ccc1O", "activation": "inconclusive: 53.9%"}, {"smiles": "COC(=O)C1=C(c2ccc(Cl)c(C(F)(F)F)c2)C[C@@H]2CC[C@H]1N2C(=O)NC(C)C", "activation": "inconclusive: 46%"}, {"smiles": "O=c1[nH]c(=O)n(-c2ccccc2)c(O)c1/C=C1/C(c2ccccc2)=Nc2ccccc21", "activation": "inconclusive: 35.1%"}, {"smiles": "Cc1ccsc1C(=O)C1CCCN(Cc2cccc(OCCO)c2)C1", "note": "(stereo not drawn)", "activation": "inactive: 2.8%"}, {"smiles": "Cn1c(O)c(/C=N/NC(=O)c2ccncc2)c(=O)[nH]c1=S", "activation": "inconclusive: 39.6%"}, {"smiles": "CCc1nccc2c1[nH]c1ccccc12", "activation": "inconclusive: 33.6%"}, {"smiles": "O=C(c1cc(-c2ccccc2)nc2ccccc12)N1CCC2(CC1)OCCO2", "activation": "inconclusive: 31.8%"}, {"smiles": "O=C(CCCN1CCC2(CC1)C(=O)NCN2c1ccccc1)c1ccc(F)cc1", "activation": "inactive: 18%"}, {"smiles": "CC(C)C[C@H]1C(=O)N2CCC[C@H]2[C@]2(O)O[C@](NC(=O)[C@@H]3C=C4c5cccc6[nH]cc(c56)C[C@H]4N(C)C3)(C(C)C)C(=O)N12", "activation": "inactive: 0.0639%"}]}]}
